Experimental findings from PMC9818633 are described below.

Chains of the proteins cited; added tags and fusions are not shown.
UniProt P68400: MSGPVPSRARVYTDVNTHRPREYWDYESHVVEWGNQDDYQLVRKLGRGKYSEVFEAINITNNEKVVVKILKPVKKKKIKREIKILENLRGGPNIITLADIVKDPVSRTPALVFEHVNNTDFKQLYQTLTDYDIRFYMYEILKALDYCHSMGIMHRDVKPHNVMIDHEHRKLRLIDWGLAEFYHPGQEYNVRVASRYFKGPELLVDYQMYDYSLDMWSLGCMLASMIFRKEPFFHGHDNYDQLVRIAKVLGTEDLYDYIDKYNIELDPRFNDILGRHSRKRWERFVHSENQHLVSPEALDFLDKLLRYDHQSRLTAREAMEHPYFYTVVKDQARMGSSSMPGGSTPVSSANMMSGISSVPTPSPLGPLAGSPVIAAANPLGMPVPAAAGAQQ

No constants are given. Whether binding was seen depends on the method and setting. Binding seen in cells or lysates may run through a third protein. Some entries that bind do so weakly or less than the wild type. Sequences can lack the tags named with a protein.

This assay addresses T1, FLAG-tagged USP13 (Ubiquitin-specific Peptidase 13), wild type (human) (UniProt Q92995).
T1 sequence: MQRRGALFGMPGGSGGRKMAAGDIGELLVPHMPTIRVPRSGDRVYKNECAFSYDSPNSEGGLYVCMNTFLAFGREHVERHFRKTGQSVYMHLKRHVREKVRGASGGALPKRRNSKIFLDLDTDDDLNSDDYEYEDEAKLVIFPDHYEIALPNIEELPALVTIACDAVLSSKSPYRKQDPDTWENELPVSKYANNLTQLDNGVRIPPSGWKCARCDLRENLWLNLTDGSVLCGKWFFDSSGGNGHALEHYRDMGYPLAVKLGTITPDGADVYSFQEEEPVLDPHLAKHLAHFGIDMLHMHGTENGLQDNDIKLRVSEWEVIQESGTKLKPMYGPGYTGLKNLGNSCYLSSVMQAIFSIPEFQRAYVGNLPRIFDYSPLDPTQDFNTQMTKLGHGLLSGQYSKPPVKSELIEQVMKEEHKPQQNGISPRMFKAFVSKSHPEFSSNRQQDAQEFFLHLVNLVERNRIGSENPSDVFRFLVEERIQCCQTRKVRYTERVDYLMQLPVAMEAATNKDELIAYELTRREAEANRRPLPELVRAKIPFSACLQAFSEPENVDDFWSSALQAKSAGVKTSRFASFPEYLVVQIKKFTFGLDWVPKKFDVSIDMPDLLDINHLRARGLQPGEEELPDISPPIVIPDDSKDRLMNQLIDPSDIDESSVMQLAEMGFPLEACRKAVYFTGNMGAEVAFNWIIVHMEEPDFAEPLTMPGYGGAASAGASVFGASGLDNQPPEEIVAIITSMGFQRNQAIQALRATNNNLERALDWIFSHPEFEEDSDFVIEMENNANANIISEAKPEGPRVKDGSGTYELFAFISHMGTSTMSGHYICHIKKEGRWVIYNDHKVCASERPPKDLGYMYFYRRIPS
Put plainly: co-IP; HeyA8 cells transfected with FLAG-USP13; lysate (1 mg) in IP buffer (1% NP-40, 50 mM Tris-HCl, 500 mM NaCl, 5 mM EDTA) incubated overnight at 4 °C with anti-FLAG M2 antibody or normal IgG, Protein A-Sepharose beads; western blot with anti-CK2α antibody. (In general: In western blotting, separated proteins are transferred to a membrane and probed.)

Regarding “Casein kinase 2 (CK2), catalytic subunit alpha (CK2α) (from UniProt P68400 1-391) (enzyme)”, the binding result is “binds”.
